The list shows a part of the results.
Tests used:
Assay in all cases: log2 fold change, soluble protein after heating vs DMSO (PISA); higher = thermal stabilisation; K562 lysate, 10 uM; active = over 0.2 and 3.5 SD of the protein, either way, in both replicates (recomputed)
quisinostat = compound: Cn1cc(CNCC2CCN(c3ncc(C(=O)NO)cn3)CC2)c2ccccc21 [quisinostat]
Procedure, shortened: (§1)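 The values are log-two fold changes in thermal stability compared with solvent controls and come from duplicates. They were obtained by TMTpro 16plex LC-MS/MS, with channel sums equalised, on the supernatant after 21,000xg for 90 min. That supernatant came from crude K562 extract at 1 mg/mL protein treated with 10 μM compound for 30 min, heated for 3 min across 48°C-58°C, pooled and brought to 0.5% NP-40 at 4°C.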

Sequences of proteins named here, by UniProt entry; tags and fusion partners are left off. A change or cut given only in a name is not applied to a line headed by its entry.
UniProt P17019: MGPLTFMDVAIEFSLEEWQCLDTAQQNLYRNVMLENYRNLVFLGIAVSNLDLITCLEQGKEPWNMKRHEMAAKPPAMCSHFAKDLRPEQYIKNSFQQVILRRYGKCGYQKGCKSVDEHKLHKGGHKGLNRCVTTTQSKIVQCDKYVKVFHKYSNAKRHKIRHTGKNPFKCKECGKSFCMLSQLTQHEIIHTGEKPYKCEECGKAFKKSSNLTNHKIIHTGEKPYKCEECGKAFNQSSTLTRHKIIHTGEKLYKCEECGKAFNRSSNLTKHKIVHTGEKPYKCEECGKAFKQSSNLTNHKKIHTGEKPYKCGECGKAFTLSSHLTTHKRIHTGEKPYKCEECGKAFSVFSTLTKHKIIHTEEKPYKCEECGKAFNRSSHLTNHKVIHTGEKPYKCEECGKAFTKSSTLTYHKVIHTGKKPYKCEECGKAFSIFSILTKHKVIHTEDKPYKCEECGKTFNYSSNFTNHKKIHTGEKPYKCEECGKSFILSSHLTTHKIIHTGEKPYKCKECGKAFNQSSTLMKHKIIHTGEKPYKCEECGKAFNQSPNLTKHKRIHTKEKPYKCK
UniProt P17020: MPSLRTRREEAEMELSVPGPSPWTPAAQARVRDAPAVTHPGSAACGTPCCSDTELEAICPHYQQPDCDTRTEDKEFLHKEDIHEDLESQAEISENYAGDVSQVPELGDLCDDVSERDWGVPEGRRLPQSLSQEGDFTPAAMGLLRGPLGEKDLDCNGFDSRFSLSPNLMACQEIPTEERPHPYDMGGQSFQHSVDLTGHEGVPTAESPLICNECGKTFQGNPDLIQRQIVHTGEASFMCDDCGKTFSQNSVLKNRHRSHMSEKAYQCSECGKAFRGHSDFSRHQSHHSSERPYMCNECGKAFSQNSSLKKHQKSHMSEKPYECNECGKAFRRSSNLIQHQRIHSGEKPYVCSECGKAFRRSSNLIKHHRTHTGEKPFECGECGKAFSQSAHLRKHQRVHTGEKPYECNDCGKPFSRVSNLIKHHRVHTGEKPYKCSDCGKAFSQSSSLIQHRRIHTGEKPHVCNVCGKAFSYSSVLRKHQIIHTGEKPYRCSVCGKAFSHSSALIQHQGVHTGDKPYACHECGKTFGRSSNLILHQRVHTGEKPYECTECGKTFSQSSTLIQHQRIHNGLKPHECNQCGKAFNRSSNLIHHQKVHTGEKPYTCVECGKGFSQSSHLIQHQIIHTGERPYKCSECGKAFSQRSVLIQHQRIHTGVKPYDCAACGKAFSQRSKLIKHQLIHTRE
UniProt Q9NW07: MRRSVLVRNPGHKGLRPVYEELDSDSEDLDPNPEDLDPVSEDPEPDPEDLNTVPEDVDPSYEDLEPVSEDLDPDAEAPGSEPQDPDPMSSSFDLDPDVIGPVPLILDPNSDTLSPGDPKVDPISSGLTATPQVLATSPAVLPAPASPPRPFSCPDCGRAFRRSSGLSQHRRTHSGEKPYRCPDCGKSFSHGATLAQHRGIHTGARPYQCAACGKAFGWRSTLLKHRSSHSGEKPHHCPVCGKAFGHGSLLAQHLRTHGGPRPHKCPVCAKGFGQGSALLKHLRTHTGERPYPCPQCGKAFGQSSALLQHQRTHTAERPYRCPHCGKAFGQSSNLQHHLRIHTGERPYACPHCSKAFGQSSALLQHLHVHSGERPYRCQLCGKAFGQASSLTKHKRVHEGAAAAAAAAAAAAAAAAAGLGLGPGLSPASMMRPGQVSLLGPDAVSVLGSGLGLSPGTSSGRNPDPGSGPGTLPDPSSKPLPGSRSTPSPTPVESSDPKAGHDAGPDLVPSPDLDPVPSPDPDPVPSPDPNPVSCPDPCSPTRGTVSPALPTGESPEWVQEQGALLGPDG
UniProt Q9UJ78: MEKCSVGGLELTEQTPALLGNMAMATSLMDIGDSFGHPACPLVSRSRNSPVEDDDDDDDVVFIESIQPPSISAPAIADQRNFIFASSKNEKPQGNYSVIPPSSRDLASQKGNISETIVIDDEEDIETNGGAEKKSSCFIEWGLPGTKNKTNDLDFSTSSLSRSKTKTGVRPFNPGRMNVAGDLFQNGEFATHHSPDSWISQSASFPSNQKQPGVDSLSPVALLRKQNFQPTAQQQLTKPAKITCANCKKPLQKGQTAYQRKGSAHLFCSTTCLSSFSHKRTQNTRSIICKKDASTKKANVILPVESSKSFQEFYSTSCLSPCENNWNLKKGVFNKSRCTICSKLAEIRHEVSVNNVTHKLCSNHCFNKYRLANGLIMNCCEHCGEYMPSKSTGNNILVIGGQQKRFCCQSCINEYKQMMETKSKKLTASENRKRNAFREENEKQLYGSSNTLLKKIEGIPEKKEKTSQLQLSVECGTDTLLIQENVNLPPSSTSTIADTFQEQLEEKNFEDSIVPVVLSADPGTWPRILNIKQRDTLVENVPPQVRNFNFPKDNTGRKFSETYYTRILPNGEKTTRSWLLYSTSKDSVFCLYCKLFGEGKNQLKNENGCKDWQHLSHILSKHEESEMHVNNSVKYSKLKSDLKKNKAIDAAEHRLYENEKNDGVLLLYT
UniProt Q16670: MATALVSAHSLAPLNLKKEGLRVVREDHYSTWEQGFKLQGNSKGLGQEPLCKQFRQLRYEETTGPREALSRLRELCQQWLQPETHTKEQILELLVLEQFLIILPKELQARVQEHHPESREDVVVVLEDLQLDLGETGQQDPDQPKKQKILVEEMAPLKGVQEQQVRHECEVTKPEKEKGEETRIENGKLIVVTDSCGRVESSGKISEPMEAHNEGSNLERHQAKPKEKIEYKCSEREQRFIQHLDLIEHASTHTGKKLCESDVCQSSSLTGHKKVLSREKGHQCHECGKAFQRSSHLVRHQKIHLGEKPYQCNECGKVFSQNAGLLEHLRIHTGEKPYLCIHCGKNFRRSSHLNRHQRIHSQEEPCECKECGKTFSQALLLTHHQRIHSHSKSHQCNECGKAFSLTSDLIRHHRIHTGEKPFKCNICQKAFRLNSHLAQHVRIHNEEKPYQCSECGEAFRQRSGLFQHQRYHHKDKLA
UniProt Q96IQ9: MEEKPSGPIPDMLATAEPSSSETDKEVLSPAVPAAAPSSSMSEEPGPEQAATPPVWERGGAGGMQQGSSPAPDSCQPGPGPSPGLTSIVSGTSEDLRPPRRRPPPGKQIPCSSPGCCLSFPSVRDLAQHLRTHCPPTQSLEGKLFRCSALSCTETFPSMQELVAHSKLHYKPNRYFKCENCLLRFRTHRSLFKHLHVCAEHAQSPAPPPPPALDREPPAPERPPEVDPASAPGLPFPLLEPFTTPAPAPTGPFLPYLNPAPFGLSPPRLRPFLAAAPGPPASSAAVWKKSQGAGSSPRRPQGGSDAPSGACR
UniProt Q96KM6: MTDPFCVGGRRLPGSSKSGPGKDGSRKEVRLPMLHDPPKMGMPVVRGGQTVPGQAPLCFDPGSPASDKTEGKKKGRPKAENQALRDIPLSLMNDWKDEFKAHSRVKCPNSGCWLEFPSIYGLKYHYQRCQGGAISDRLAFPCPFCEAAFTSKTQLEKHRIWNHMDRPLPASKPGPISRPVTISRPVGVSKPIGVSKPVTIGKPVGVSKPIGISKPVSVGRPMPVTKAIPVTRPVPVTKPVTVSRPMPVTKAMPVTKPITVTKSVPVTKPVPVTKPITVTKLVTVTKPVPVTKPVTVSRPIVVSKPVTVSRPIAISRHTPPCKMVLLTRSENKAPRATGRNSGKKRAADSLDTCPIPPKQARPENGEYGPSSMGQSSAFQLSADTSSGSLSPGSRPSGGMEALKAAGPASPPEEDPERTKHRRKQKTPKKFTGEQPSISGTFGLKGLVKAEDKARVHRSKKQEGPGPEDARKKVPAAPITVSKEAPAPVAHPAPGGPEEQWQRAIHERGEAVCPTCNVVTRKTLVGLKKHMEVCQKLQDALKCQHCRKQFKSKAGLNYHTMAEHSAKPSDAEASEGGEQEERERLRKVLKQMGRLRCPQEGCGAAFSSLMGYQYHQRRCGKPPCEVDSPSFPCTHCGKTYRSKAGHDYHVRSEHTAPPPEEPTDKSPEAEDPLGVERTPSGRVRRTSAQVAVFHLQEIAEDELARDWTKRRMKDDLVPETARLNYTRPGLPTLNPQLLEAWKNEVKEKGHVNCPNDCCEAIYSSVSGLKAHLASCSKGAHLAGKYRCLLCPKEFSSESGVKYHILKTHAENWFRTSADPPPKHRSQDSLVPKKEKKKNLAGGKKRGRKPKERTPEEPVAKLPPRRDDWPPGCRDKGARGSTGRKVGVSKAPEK
UniProt Q9Y2D9: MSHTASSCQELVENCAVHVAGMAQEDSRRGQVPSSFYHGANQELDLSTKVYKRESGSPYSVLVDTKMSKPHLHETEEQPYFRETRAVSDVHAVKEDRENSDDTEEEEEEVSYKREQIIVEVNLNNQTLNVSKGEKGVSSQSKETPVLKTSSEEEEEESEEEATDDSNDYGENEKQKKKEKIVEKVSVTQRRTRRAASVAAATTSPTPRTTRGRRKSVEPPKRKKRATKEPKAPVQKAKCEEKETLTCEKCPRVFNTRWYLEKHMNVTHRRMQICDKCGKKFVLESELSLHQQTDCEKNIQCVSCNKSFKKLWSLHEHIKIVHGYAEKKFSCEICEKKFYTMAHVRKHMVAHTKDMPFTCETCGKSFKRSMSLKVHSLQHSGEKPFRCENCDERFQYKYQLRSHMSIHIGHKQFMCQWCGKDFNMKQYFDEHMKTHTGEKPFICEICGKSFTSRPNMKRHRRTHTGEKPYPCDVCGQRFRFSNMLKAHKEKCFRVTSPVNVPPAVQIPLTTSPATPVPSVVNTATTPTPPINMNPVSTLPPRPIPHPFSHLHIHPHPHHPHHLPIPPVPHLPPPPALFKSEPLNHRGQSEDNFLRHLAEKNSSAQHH
UniProt Q6IQ21: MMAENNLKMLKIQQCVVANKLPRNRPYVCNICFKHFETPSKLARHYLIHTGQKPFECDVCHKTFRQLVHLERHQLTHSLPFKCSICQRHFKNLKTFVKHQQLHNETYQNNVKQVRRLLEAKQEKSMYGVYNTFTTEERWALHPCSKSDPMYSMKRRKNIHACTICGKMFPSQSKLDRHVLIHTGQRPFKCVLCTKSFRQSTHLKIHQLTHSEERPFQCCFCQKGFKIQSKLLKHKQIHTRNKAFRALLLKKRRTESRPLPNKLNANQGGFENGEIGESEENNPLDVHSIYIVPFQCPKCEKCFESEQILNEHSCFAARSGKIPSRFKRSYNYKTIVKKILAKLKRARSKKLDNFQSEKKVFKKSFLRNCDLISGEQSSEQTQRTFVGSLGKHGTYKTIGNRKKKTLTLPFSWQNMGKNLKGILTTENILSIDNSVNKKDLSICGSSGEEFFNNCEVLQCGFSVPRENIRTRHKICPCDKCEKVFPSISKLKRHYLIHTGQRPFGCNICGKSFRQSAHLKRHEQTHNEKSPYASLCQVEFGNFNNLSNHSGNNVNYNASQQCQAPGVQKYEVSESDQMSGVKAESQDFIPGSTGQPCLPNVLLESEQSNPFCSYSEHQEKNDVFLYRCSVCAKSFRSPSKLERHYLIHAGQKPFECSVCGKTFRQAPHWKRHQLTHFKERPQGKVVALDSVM
UniProt Q14592: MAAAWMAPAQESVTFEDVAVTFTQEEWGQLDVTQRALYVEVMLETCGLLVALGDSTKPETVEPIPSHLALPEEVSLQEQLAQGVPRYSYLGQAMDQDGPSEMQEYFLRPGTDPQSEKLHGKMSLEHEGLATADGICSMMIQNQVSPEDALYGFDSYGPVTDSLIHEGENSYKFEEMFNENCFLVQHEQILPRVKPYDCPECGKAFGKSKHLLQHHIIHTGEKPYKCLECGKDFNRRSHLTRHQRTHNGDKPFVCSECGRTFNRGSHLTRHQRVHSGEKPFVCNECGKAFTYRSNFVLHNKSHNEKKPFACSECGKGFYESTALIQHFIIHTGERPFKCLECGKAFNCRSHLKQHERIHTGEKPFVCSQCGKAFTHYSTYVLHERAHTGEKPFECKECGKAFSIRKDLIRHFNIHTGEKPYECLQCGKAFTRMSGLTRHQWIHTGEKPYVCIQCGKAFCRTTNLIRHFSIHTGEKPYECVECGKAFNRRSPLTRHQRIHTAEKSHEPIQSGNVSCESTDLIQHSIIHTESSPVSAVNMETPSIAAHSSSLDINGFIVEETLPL
UniProt Q15696: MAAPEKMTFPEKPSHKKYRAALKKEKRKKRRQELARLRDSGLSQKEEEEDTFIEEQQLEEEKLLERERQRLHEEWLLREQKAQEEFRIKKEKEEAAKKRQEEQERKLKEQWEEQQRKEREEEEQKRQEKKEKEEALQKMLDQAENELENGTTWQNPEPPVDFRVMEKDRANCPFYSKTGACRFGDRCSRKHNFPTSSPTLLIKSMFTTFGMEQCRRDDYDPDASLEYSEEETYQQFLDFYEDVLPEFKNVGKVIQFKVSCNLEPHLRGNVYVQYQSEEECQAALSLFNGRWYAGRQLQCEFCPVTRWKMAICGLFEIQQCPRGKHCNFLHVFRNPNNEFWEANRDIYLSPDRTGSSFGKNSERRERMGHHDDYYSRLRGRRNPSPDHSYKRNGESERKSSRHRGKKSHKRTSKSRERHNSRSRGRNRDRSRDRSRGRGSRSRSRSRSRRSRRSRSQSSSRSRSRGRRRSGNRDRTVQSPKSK

[1] = compound: NC(=O)Nc1cc(-c2cccc(F)c2)sc1C(=O)N[C@H]1CCCNC1
Procedure, shortened: as §1

[2] = compound: NC1(c2ccc(-c3nc4ccn5c(=O)[nH]nc5c4cc3-c3ccccc3)cc2)CCC1
Procedure, shortened: as §1

[3] = compound: NCC(=O)Nc1ccc(-n2nc(C(F)(F)F)cc2-c2ccc3c(ccc4ccccc43)c2)cc1
Procedure, shortened: as §1

vorinostat = compound: O=C(CCCCCCC(=O)Nc1ccccc1)NO [vorinostat]
Procedure, shortened: as §1

silmitasertib = compound: O=C(O)c1ccc2c(c1)nc(Nc1cccc(Cl)c1)c1ccncc12 [silmitasertib]
Procedure, shortened: as §1

[4] = compound: O=C1NC(=O)C(c2cnc3ccccn23)=C1c1cn2c3c(cc(F)cc13)CN(C(=O)N1CCCCC1)CC2
Procedure, shortened: as §1

entospletinib = compound: c1cn2cc(-c3ccc4cn[nH]c4c3)nc(Nc3ccc(N4CCOCC4)cc3)c2n1 [entospletinib]
Procedure, shortened: as §1

[5] = compound: NC(=O)c1cnc(N[C@@H]2CCCC[C@@H]2N)nc1Nc1cccc(-n2nccn2)c1
Procedure, shortened: as §1

dasatinib = compound: Cc1nc(Nc2ncc(C(=O)Nc3c(C)cccc3Cl)s2)cc(N2CCN(CCO)CC2)n1 [dasatinib]
Procedure, shortened: as §1

[6] = compound: Cn1cc(-c2ccc3c(c2)CCN3C(=O)Cc2cccc(C(F)(F)F)c2)c2c(N)ncnc21
Procedure, shortened: as §1

Measured: log2 fold change

ZNF76 (UniProt P36508)
inactive: quisinostat 0.013 | [1] -0.045 | [2] -0.077 | [3] 0.083 | vorinostat 0.193 | silmitasertib -0.007 | [4] -0.005

ZNF708 (UniProt P17019)
inactive: [3] 0.025 | entospletinib 0.102

ZNF16 (UniProt P17020)
inactive: quisinostat -0.017 | [1] -0.007 | [4] -0.005

ZNF358 (UniProt Q9NW07)
inactive: [5] -0.084 | [2] 0.111 | vorinostat 0.08 | silmitasertib 0.143

ZMYM5 (UniProt Q9UJ78)
inactive: [2] 0.029 | [3] 0.103 | vorinostat -0.275 | silmitasertib 0.077

ZNF100 (UniProt Q8IYN0)
inactive: quisinostat -0.198 | [1] 0.198 | [4] 0.19

ZSCAN26 (UniProt Q16670)
inactive: quisinostat 0.169 | [1] -0.093 | [4] -0.024

ZNF414 isoform 2 (UniProt Q96IQ9)
inactive: quisinostat -0.04 | [1] 0 | [4] -0.076 | entospletinib -0.108

ZSCAN21 (UniProt Q9Y5A6)
inactive: entospletinib -0.208

ZNF627 (UniProt Q7L945)
inactive: quisinostat 0.023 | [1] 0.113 | [2] -0.062 | vorinostat -0.325 | silmitasertib -0.358 | [4] -0.067

ZNF561-AS1 (UniProt K7EIQ3)
inactive: [2] 0.123 | vorinostat 0.133 | silmitasertib 0.232

ZNF512B (UniProt Q96KM6)
inactive: [5] 0.018

ZNF852 (UniProt Q6ZMS4)
inactive: quisinostat -0.14 | [1] -0.138 | [5] 0.11 | [2] -0.058 | [3] 0.056 | vorinostat 0.153 | silmitasertib -0.084 | [4] 0.233

ZNF652 (UniProt Q9Y2D9)
inactive: quisinostat 0 | [1] -0.036 | [4] -0.042

ZNF770 (UniProt Q6IQ21)
inactive: quisinostat 0.044 | [1] 0.095 | [4] -0.065

ZNF280D (UniProt Q6N043)
inactive: [5] 0.111

Copied from above (2 entries):
ZNF512B (UniProt Q96KM6)
inactive: [5] 0.018

ZNF852 (UniProt Q6ZMS4)
inactive: quisinostat -0.14 | [1] -0.138 | [5] 0.11 | [2] -0.058 | [3] 0.056 | vorinostat 0.153 | silmitasertib -0.084 | [4] 0.233

(list continues)

ZNF460 (UniProt Q14592)
inactive: [3] -0.154 | entospletinib 0.049

ZRSR2 (UniProt Q15696)
inactive: quisinostat -0.082 | [1] 0.06 | [4] -0.022

ZNF77 (UniProt Q15935)
inactive: [3] 0.16 | entospletinib 0.028

ZNF655 isoform 2 (UniProt Q8N720)
inactive: [3] -0.141

ZNF646 (UniProt O15015)
inactive: quisinostat 0.074 | [1] 0.057 | [4] 0.03

ZNF692 isoform 5 (UniProt Q9BU19)
inactive: dasatinib 0.312 | [6] -0.128 | [3] -0.085

ZNF771 (UniProt Q7L3S4)
inactive: [5] 0.025 | [2] -0.222 | vorinostat 0.238 | silmitasertib 0.065

ZNF391 (UniProt Q9UJN7)
inactive: entospletinib 0.17
